Test results from patent US20190062384A1.
Results are given in words; binding and its absence hold for the method and conditions named. Binding seen in cells or lysates may run through a third protein. Some binding calls cover weakened binding; strength is not graded here.

Key:
[1] = target: Ostrinia nubilalis Bt toxin receptor (SEQ ID NO: 4) (Ostrinia nubilalis); assay: co-immunoprecipitation from O. nubilalis BBMVs with 1 uM or 100 nM IP2.127, SDS-PAGE gel
[2] = target: Helicoverpa zea Bt toxin receptor (SEQ ID NO: 2) (Helicoverpa zea); assay: co-precipitation from H. zea BBMVs with 1 uM or 100 nM biotin-labeled IP2.127, SDS-PAGE gel

Substance	binding [1]	binding [2]
IP2.127 (from UniProt P21254 2-633) (ligand)	binds	
biotin labeled IP2.127 (from UniProt P21254 2-633) (ligand)		binds
